Reference: patent US7354726B2, “Screening method” (Takeda Pharmaceutical Company Limited, priority 2001, dated 2008)
For at least one compound, name, drawing or mass did not settle the structure. Some compounds share one wording; it may come from a single statement.

Legend:
[1] = test system: rabbit alveolus macrophage; test: Phagocytotic activity of rabbit alveolus macrophage (yeast uptake, fuchsin staining); details: 100 μM, 16 hours
[2] = test system: THP-TGR5; test: cAMP production in THP-TGR5 cells; details: THP-TGR5, 20 minutes
[3] = biological target: T1, rat TGR5 (Rattus norvegicus, UniProt Q80T02); test: CRE-luciferase reporter assay in CHO-mock cells co-expressing Gi and rat TGR5; format: cell-based; details: 10 μM bile acid, rat TGR5, versus group with no bile acid (Base)
T1 construct: expressed in transfected cells; host or cells: CHO-mock cells, transient, with Gi plasmid and reporter plasmid
T1 sequence (Q80T02 1-329): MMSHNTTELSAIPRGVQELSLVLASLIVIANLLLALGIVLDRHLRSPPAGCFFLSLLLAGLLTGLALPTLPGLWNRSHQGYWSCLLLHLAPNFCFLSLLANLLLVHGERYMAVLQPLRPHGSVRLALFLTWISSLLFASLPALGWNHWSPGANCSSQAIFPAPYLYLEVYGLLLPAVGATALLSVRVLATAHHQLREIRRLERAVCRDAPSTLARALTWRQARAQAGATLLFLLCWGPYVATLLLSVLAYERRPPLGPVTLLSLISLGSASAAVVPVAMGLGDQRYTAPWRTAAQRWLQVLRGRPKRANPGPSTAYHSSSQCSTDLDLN
Method: (§1) Alternatively, an assay under condition wherein forskolin was added to the assay buffer at the final concentration of 2 μM, was performed in the same way. […] After completion of incubation, the assay buffer was removed from each well. Then 50 μl of luminescent substrate for PicaGene LT2.0 (Toyo Ink) was added to each well.
(§2) The mixing ratio of these three plasmids is, where the total volume is 11 μl, appropriate for 1 to 6, preferably 1 to 3 of Gi.
(§3) For a positive control of reporter gene expression, forskolin (FSSK, 2 μM) was used.

[4] = biological target: T2, bovine TGR5 (Bos taurus, UniProt Q862A9); test: CRE-luciferase reporter assay in CHO-mock cells co-expressing Gi and bovine TGR5; format: cell-based; details: 10 μM bile acid, bovine TGR5, versus group with no bile acid (Base)
T2 construct: expressed in transfected cells; host or cells: CHO-mock cells, transient, with Gi plasmid and reporter plasmid
T2 sequence (Q862A9 1-329): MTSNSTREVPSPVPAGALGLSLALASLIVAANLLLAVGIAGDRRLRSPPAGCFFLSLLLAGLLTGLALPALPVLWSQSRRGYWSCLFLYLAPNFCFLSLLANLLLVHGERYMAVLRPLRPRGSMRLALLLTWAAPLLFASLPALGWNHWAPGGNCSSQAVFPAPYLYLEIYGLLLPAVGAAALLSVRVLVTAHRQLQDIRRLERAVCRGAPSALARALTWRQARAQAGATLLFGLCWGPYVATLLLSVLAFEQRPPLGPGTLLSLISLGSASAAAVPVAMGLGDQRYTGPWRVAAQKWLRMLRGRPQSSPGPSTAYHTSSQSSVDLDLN
Method: as §1, §2, §3

[5] = biological target: T3, mouse TGR5 (Mus musculus, UniProt Q80SS6); test: CRE-luciferase reporter assay in CHO-mock cells co-expressing Gi and mouse TGR5; format: cell-based; details: 10 μM bile acid, mouse TGR5, versus group with no bile acid (Base)
T3 construct: expressed in transfected cells; host or cells: CHO-mock cells, transient, with Gi plasmid and reporter plasmid
T3 sequence (Q80SS6 1-329): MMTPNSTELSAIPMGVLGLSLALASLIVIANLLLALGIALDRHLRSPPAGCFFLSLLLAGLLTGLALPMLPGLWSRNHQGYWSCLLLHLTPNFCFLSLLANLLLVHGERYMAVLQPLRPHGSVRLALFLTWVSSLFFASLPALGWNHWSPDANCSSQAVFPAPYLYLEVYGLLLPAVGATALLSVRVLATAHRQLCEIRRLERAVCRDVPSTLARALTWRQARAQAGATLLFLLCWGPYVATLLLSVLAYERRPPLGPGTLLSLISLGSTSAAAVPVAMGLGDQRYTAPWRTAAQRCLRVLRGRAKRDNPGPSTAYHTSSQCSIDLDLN
Method: as §1, §2, §3

[6] = biological target: T4, rabbit TGR5 (Oryctolagus cuniculus, UniProt Q862A8); test: CRE-luciferase reporter assay in CHO-mock cells co-expressing Gi and rabbit TGR5; format: cell-based; details: 10 μM bile acid, rabbit TGR5, versus group with no bile acid (Base)
T4 construct: expressed in transfected cells; host or cells: CHO-mock cells, transient, with Gi plasmid and reporter plasmid
T4 sequence (Q862A8 1-330): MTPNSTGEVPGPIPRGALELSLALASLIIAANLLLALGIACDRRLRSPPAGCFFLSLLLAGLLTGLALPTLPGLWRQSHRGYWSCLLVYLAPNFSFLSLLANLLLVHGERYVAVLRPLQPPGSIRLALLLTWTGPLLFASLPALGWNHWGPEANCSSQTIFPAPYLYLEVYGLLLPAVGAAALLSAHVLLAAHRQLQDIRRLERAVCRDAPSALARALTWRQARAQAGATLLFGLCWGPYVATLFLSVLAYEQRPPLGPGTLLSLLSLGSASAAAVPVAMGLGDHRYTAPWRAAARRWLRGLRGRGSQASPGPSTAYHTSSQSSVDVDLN
Method: as §1, §2, §3

[7] = test system: rabbit alveolus macrophage; test: Cytokine mRNA expression in LPS-stimulated rabbit alveolus macrophage (quantitative PCR); format: cell-based; details: 100 μM TLCA, LPS 1 ng/ml, 2 hours
[8] = test system: THP-TGR5; test: TNFα mRNA expression in LPS-stimulated THP-TGR5 cells; details: 100 μM TLCA, 2 hours after LPS addition
[9] = test system: THP-TGR5; test: LPS-induced TNFα secretion from THP-TGR5 cells (L929 bioassay); details: 100 μM TLCA, LPS 50 ng/ml, 24 hours
[10] = test system: THP-1; test: LPS-induced TNFα secretion from original THP-1 cells (L929 bioassay); format: cell-based, human; details: 100 μM TLCA, LPS 50 ng/ml, 24 hours
[11] = test system: rabbit alveolus macrophage; test: cAMP production of rabbit alveolus macrophage; format: cell-based; details: 200 μM TLCA, 4 minutes
[12] = test system: THP-1; test: cAMP production in THP-1 cells; format: cell-based, human; details: THP-1, 20 minutes
[13] = test system: rabbit alveolus macrophage; test: LPS-induced TNFα secretion from rabbit alveolus macrophage (L929 bioassay); format: cell-based; details: 50 μM TLCA, LPS 1 ng/ml, 12 hours

Row | SMILES | phagocytotic activity of macrophage [1] | cAMP production [2] | luciferase activity (reporter gene expression level) [3] | luciferase activity (reporter gene expression level) [4] | luciferase activity (reporter gene expression level) [5] | luciferase activity (reporter gene expression level) [6] | expression level of IL-1α mRNA [7] | expression level of IL-1β mRNA [7] | expression level of IL-6 mRNA [7] | expression level of IL-8 mRNA [7] | expression level of TNFα mRNA [7] | expression level of human TNFα mRNA [8] | TNFα secretion level [9] | TNFα secretion [10] | level of cAMP production [11] | cAMP production [12] | secretion level of TNFα [13]
1 | C[C@H](CCC(=O)O)[C@H]1CC[C@H]2[C@@H]3CC[C@@H]4C[C@H](O)CC[C@]4(C)[C@H]3CC[C@]12C [LCA, lithocholic acid] | significantly decreased | increase of cAMP production | – | – | – | – | – | – | – | – | – | – | – | – | – | – | –
2 | C[C@H](CCC(=O)O)[C@H]1CC[C@H]2[C@@H]3CC[C@@H]4C[C@H](O)CC[C@]4(C)[C@H]3C[C@H](O)[C@]12C [DCA, deoxycholic acid] | – | increase of cAMP production | higher luciferase activity than that of a group with no bile acid | higher luciferase activity than that of a group with no bile acid | higher luciferase activity than that of a group with no bile acid | higher luciferase activity than that of a group with no bile acid | – | – | – | – | – | – | – | – | – | – | –
3 | C[C@H](CCC(=O)NCCS(=O)(=O)O)[C@H]1CC[C@H]2[C@@H]3CC[C@@H]4C[C@H](O)CC[C@]4(C)[C@H]3CC[C@]12C [TLCA, taurolithocholic acid] | – | increase of cAMP production | – | – | – | – | apparently decreased | apparently decreased | apparently decreased | apparently decreased | apparently decreased | significant decrease of expression level | significant decrease of TNFα secretion level | no significant inhibitory action of TNFα secretion | increased | not observed | significantly decreased
